In patent US10450343 (dated 2019):

Experiment: general procedure: Fmoc solid-phase peptide synthesis
Conditions: whole synthesis

For [Asp(9)-H2O]-AVE0010, the “crude HPLC purity” value (UV 215 nm) was 23.4% and the “final HPLC purity” value (area %) was 91.50%.
